Assay [1] concerns the target cynomolgus monkey HVEM on PBMCs (cynomolgus monkey). Kind of assay: mass cytometry (CyTOF), 166Er-conjugated antibody on cynomolgus PBMCs.
Assay [2] has the same target. Put plainly: mass cytometry (CyTOF) with 166Er-conjugated antibody on cynomolgus monkey total PBMCs, gated on B, NK, monocytes, CD4 T and CD8 T cells; no negative control antibody shown.
For assay [3] the target is unchanged. Kind of assay: mass cytometry (CyTOF), metal-conjugated antibody on cynomolgus PBMCs.
For assay [4] the target is unchanged. Put plainly: mass cytometry (CyTOF), NK cells gated in total cynomolgus monkey PBMCs.
Assay [5] has the same target. Kind of assay: mass cytometry (CyTOF), CD14 cells gated in total cynomolgus monkey PBMCs.

Results are given in words; binding and its absence hold for the method and conditions named. Some binding calls cover weakened binding; strength is not graded here.

B1: anti-HVEM antibody clone 17 (antibody, human IgG1, kappa, V domains shown)
VH: QIQLVQSGPELKKPGEPVKISCRASGYTLTNFGMNWVKQAPGKGLKWMGWINTYTGEPTYADDFKGRFAFSLETSASTAYLQINNLKNEDTATYFCARSFYGNEHYWGQGTSVTVSS
VL: QIVLTQSPAIMSASPGEKVTLTCSASSSVSSSYLFWYQQKPGSSPKLWIYSTSNLASGVPARFSGHGSGTSYSLTISSMEAEDAASYFCHQWSSYPYTFGGGTKLEIKR
notes: also called HVEM17; HVEM-17
With B1, the binding entry in assay [1] and in assay [2] was “binds” in each case.

B2: anti-HVEM antibody clone 22 (antibody, human IgG1, kappa, V domains shown)
VH: QVQLQQSGAELVRPGASVTLSCKTSGYTFIHYEIHWVKQSPVHGLEWIGAIDPETGGTADNQKFKDKVTLTADKSSNTAYMDLRSLTSEDSAVYYCTRGDWVFAYWGQGTLVTVSA
VL: DVVMTQTPLSLPVSLGDQASISCRSSQSPLHSNGNTYLDWYLQKPGQSPKLLIYKVSNRFSGVPDRFSGSGSGTDFTLKISRVEAEDLGIYFCSQTTHVPPTFGGGTKLEIKR
notes: also called HVEM22; HVEM-22
Take B2: the binding entry in assay [1] and in assay [2] was “binds” throughout.

B3: mcHVEM13 IgG (clone 13) (antibody, V domains shown)
VH: QIQLVQSGPELKKPGETVKISCKASGYILTNYGMNWVKQAPGKGLKWMGWINTYTGEPTYADAFKGRFAFSLETSASTAYLQINNLKNEDTATYFCARGYGNHWYFDYWGQGTSVTVSS
VL: QIVLTQSPAILSASPGEKVTMTCSASSSVSYMHWYQRKSGTSPKRWIYDTSKLASGVPARFSGSGSGTSYSLTISSMEAEDAATYYCQQWTSDPLTFGAGTKLELKR
notes: Murine chimeric IgG; The constant region of the tested IgG is not spelled out; Metal-conjugated in mass cytometry; also called anti-HVEM13; aHVEM13
B3: the binding entry in assay [3], in assay [4] and in assay [5] was “binds” throughout.

B4: mcHVEM5 IgG (clone 5) (antibody, V domains shown)
VH: DVQLVESGGGLVQPGGSRKLSCAASGFTFSSSGMQWVRQAPEKGLEWVAYISSGSSTIYYADTVKGRFTISRDNPKNTLFLQMTSLRSEDTAMYYCAKNRGYGNYAYAMDYWGQGTSVTVSS
VL: DIVMTQSQKFMSTSVGDRVSVTCKASQNVDTYVAWYQQKPGQSPKALIYSASYRYSGVPDRFTGSGSGTDFTLTISNVQSEDLAEYFCQQYNNYPLTFGAGTKLNLKR
As for B4, the binding result in assay [3], in assay [4] and in assay [5] was “binds” each time.

(Values after patent US20240317873A1 (CITY OF HOPE, published 2024).)
